According to PMC2677661:
Where a chain is given by its changes, count along the chain named. For at least one entry, the source does not settle the construct or the ends of the probe. Where cells or extracts were used, other partners may take part. For some assays here: At least one verdict was read from the data and is not stated in words by the source. Where a protein sequence is shown, tags need not be part of it.

Columns and labels:
[1] = target: T1, DRIL1 wt (UniProt Q99856); experiment: EMSA; details: SUMO1 co-expressed, binding unaffected; 5 ug nuclear proteins, 20 mM HEPES pH 7.9, 10 mM KCl, 0.2 mM EDTA, 20% glycerol, 1% acetylated BSA, 3 ug poly(dI-dC), 1 mM DTT, 1 mM PMSF, 30 min, room temperature; protein in a lysate after overexpression; label: 32P (Klenow end-fill with dATP and dCTP)
T1 sequence (looked up, limits assumed): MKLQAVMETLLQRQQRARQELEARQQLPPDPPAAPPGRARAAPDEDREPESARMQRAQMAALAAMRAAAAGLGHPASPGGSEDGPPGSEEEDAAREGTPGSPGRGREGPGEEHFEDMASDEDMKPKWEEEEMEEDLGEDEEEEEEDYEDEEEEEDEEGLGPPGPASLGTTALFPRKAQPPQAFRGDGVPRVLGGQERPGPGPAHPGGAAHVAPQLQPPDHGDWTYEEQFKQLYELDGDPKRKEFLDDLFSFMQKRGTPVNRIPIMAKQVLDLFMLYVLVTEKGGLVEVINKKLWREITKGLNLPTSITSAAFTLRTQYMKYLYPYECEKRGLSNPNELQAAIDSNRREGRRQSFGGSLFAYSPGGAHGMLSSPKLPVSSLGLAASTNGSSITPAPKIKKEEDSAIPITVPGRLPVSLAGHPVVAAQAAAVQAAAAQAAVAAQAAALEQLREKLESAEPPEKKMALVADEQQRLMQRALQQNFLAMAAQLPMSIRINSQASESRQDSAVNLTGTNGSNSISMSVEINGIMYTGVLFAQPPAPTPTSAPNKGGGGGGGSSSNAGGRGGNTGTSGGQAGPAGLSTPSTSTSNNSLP

[2] = target: T2, DRIL1 K398R (UniProt Q99856); experiment: EMSA with anti-DRIL1 supershift; details: 5 ug nuclear proteins, 20 mM HEPES pH 7.9, 10 mM KCl, 0.2 mM EDTA, 20% glycerol, 1% acetylated BSA, 3 ug poly(dI-dC), 1 mM DTT, 1 mM PMSF, 30 min, room temperature; protein in a lysate after overexpression; label: 32P (Klenow end-fill with dATP and dCTP)
T2 sequence (looked up, limits assumed): T1 sequence (looked up, limits assumed) with K398R

[3] = target: T3, DRIL1 Kx4R K126R,K398R,K399R,K452R (UniProt Q99856); experiment: EMSA with anti-DRIL1 supershift; details: 5 ug nuclear proteins, 20 mM HEPES pH 7.9, 10 mM KCl, 0.2 mM EDTA, 20% glycerol, 1% acetylated BSA, 3 ug poly(dI-dC), 1 mM DTT, 1 mM PMSF, 30 min, room temperature; protein in a lysate after overexpression; label: 32P (Klenow end-fill with dATP and dCTP)
T3 sequence (looked up, limits assumed): T1 sequence (looked up, limits assumed) with K126R, K398R, K399R, K452R

[4] = target: T1, DRIL1 wt; experiment: EMSA with anti-DRIL1 supershift; details: 5 ug nuclear proteins, 20 mM HEPES pH 7.9, 10 mM KCl, 0.2 mM EDTA, 20% glycerol, 1% acetylated BSA, 3 ug poly(dI-dC), 1 mM DTT, 1 mM PMSF, 30 min, room temperature; protein in a lysate after overexpression; label: 32P (Klenow end-fill with dATP and dCTP)

Measured: binding result

GGTTCCCCAAAATATAAGTATAAATATGTGCAAAACTTGTTTATTAACTTATTTATCTTAAAATCTGG (double strand) [Bf150]
binds: [1] | [2] | [3] | [4]

GGTTAACTTGTTAAATCACAATAAAATATTGAAGTGTTATCACATACACATACTAAACAATTTTCTAA (double strand) [TX125]
binds: [1] | [2] | [3] | [4]
